Measured values from article PMC11566155.
Results are given in words; binding and its absence hold for the method and conditions named. Binding seen in cells or lysates may run through a third protein. Some binding calls cover weakened binding; strength is not graded here.

Protein sequences, listed by entry. Tags and fused reporters are not part of them. Residues count along the entry.
UniProt O55033: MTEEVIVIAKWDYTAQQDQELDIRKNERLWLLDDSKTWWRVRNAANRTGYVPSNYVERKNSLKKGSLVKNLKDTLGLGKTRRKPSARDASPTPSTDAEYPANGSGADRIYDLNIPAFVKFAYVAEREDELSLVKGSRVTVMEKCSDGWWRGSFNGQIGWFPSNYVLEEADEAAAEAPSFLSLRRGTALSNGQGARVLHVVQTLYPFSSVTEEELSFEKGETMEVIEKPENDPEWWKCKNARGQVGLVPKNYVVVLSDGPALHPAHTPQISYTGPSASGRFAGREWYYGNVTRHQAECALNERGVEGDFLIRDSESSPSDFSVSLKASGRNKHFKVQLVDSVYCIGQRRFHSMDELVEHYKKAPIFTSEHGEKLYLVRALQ
UniProt Q03137, residues 20-986: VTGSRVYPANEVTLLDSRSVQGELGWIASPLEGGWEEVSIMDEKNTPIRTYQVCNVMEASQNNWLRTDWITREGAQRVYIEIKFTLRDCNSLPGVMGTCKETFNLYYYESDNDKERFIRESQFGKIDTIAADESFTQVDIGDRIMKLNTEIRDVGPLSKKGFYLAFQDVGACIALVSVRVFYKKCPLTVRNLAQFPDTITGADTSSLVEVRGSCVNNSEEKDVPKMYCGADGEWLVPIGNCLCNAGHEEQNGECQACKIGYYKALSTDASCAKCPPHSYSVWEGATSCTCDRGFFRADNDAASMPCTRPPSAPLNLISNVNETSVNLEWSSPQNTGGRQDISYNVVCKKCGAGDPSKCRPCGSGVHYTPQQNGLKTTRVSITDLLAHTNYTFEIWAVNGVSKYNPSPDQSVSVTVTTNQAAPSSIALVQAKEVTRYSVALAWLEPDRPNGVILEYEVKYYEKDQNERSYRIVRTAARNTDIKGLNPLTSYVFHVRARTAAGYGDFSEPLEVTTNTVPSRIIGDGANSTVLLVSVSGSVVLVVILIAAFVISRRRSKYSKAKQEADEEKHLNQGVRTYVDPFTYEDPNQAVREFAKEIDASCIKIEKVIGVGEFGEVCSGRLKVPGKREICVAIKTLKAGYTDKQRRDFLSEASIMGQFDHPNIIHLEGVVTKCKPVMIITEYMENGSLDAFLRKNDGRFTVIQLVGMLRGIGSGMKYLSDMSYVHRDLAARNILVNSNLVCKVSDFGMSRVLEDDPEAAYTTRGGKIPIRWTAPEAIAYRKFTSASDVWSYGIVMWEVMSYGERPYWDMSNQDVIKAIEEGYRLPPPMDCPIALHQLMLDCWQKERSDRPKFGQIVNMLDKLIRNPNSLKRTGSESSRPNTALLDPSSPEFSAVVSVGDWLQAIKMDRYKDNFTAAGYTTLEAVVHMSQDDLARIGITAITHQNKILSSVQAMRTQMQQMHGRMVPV
UniProt Q9QUI0: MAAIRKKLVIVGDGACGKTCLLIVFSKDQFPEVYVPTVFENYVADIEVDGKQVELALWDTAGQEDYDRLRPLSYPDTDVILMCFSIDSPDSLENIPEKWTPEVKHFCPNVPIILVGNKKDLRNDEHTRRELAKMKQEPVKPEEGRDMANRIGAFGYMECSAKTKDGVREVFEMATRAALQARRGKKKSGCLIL

Tests used:
[1] = target: Cytoplasmic protein NCK2 (mouse (endogenous in C57BL/6J tissue and primary neurons)) (UniProt O55033); experiment: co-IP; tissue lysates of C57BL/6J mice incubated with NCK2 antibody or IgG control; Western blot with NCK2, EphA4 and Rho A antibodies
[2] = target: Cytoplasmic protein NCK2 (mouse (endogenous in C57BL/6J tissue and primary neurons)) (UniProt O55033); experiment: co-IP; cell lysates of primary neurons from Snac-/- (KO) mice or WT littermates immunoprecipitated with anti-NCK2 antibodies; Western blot with EphA4 and Rho A antibodies

Row | Substance | binding [1] | binding [2]
1 | EphA4 (from UniProt Q03137 20-986) (receptor) | binds | binds
2 | Rho A (from UniProt Q9QUI0 1-193) | binds | binds
